The other results are listed elsewhere or left out. These are further read-outs of the screen, such as a control signal, another cell line or another target. No call is given for them. The list favours compounds with an active or inconclusive main result. Words in brackets tell the shape of the fitted curve; partial curves, single points and poor fits give uncertain potencies.
Assay: qHTS Assay for Lipid Storage Modulators in Drosophila S3 Cells;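 as to cell number change: cells counted by Cell Tracker Red CMTPX staining in the red channel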
Conditions: BODIPY lipid droplet fluorescence, 18-24 h; for cell number change: measured here: cell count max response, cells fed with added oleic acid
Procedure, shortened: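 Drosophila S3 cells loaded with oleic acid (400 uM, as added) and compounds at several concentrations; lipid droplets imaged by 488-nm laser-scanning cytometry, 500–530 nm intensity and object ratio to cell channel. Percent activity normalized to 20 uM Triacsin C.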

[1] = measured here: cell number channel AC50, cells fed with added oleic acid
[2] = measured here: lipid fluorescence (Fed channel) AC50, cells fed with added oleic acid

Row | Structure (SMILES) | cell number change [%] | AC50 [1] | AC50 [2]
1 | CCCn1cc(S(=O)(=O)c2ccc(F)cc2)c(=O)c2cc(OCC)ccc21 | -42.2 | 1.64 µM [falling, partial curve] | 29.1 µM [falling, single point]
2 | CCOc1ccc(N2C(=O)/C(=C\c3ccccc3OC)S(=O)(=O)C2c2cccc([N+](=O)[O-])c2)cc1 (stereo not given) | 18.5 | – | 0.82 µM [rising, single point]
3 | Cc1cc(C(=O)Nc2ccccc2Cl)c2ccccc2n1 | 10.5 | – | 20.6 µM [rising, single point]
4 | COc1cc(/C=N/NC(=O)c2cc3c(ccc4ccccc43)o2)cc(OC)c1O | -16.4 | – | 20.6 µM [falling, single point]
5 | CCCNCc1nnc(-c2ccccc2Cl)o1 | -9 | – | 13 µM [rising, single point]
6 | COCc1c(C(=O)N/N=C/C2CC=CCC2)nnn1-c1nonc1N (stereo not given) | 16.7 | – | 18.4 µM [rising, single point]
7 | COc1ccc(CNS(=O)(=O)c2ccc(-n3cnnn3)c(C)c2)cc1 | – | – | 29.1 µM [falling, single point]
8 | CC1CCCC/C1=N\NC(=S)NCCc1ccccc1 (stereo not given) | 1.77 | – | 6.51 µM [rising, single point]
9 | CC(C)(CCl)C(=O)Nc1ccc(Sc2ccc(F)cc2)cc1 | -60 | 14.6 µM [falling, partial curve, poor fit] | 16.4 µM [falling, partial curve]
10 | S=C(NC1CCCCC1)N1CCN(C/C=C/c2ccccc2)CC1 | -3.88 | 0.103 µM [falling, full curve, poor fit] | 14.6 µM [falling, partial curve]
11 | CCCC(=O)Nc1nnc(/C=C/c2ccccc2)s1 | -41.2 | 0.13 µM [falling, full curve, poor fit] | –
12 | CCOC(=O)c1cc2sccc2n1Cc1ccccc1 | -20 | – | 0.082 µM [rising, full curve, poor fit]
13 | O=C(CCCn1cnc([N+](=O)[O-])n1)Nc1cccc(O)c1 | – | 0.517 µM [falling, single point] | 0.731 µM [falling, full curve, poor fit]
14 | N#C/C(=C\c1ccccc1)C(=O)Nc1nncs1 | -41.5 | 16.4 µM [falling, single point] | 20.6 µM [falling, single point]
15 | O=C(NNS(=O)(=O)c1ccc(Cl)cc1)c1cc(-c2ccccc2)n[nH]1 | 3.14 | – | 2.59 µM [rising, partial curve]
16 | COc1ccc(/C(C)=N/OCC(=O)Nc2nc3ccccc3s2)cc1 | 30.4 | 7.31 µM [rising, partial curve, poor fit] | –
17 | O=C(NC(=S)NCCc1ccccc1)c1ccccc1F | -8.8 | – | 20.6 µM [falling, single point]
18 | Cc1cccc(-c2cc(C(=O)Nc3c(C)n(C)n(-c4ccccc4)c3=O)c3ccccc3n2)c1 | 19.4 | – | 29.1 µM [rising, single point]
19 | CC(C)CNC(=O)NC(=O)COC(=O)c1cc([N+](=O)[O-])ccc1NCc1ccccc1Cl | 13.4 | 2.31 µM [falling, partial curve] | 6.51 µM [falling, single point]
20 | NC(=S)N/N=C1/CCSc2ccc3ccccc3c21 | -51.3 | 32.6 µM [falling, single point] | 16.4 µM [falling, single point]

Of the compounds above, these contain a carbonyl joined to an NH by a bond outside any ring.
Row | Structure (SMILES) | cell number change [%] | AC50 [1] | AC50 [2]
3 | Cc1cc(C(=O)Nc2ccccc2Cl)c2ccccc2n1 | 10.5 | – | 20.6 µM [rising, single point]
4 | COc1cc(/C=N/NC(=O)c2cc3c(ccc4ccccc43)o2)cc(OC)c1O | -16.4 | – | 20.6 µM [falling, single point]
6 | COCc1c(C(=O)N/N=C/C2CC=CCC2)nnn1-c1nonc1N (stereo not given) | 16.7 | – | 18.4 µM [rising, single point]
9 | CC(C)(CCl)C(=O)Nc1ccc(Sc2ccc(F)cc2)cc1 | -60 | 14.6 µM [falling, partial curve, poor fit] | 16.4 µM [falling, partial curve]
11 | CCCC(=O)Nc1nnc(/C=C/c2ccccc2)s1 | -41.2 | 0.13 µM [falling, full curve, poor fit] | –
13 | O=C(CCCn1cnc([N+](=O)[O-])n1)Nc1cccc(O)c1 | – | 0.517 µM [falling, single point] | 0.731 µM [falling, full curve, poor fit]
14 | N#C/C(=C\c1ccccc1)C(=O)Nc1nncs1 | -41.5 | 16.4 µM [falling, single point] | 20.6 µM [falling, single point]
15 | O=C(NNS(=O)(=O)c1ccc(Cl)cc1)c1cc(-c2ccccc2)n[nH]1 | 3.14 | – | 2.59 µM [rising, partial curve]
16 | COc1ccc(/C(C)=N/OCC(=O)Nc2nc3ccccc3s2)cc1 | 30.4 | 7.31 µM [rising, partial curve, poor fit] | –
17 | O=C(NC(=S)NCCc1ccccc1)c1ccccc1F | -8.8 | – | 20.6 µM [falling, single point]
18 | Cc1cccc(-c2cc(C(=O)Nc3c(C)n(C)n(-c4ccccc4)c3=O)c3ccccc3n2)c1 | 19.4 | – | 29.1 µM [rising, single point]
19 | CC(C)CNC(=O)NC(=O)COC(=O)c1cc([N+](=O)[O-])ccc1NCc1ccccc1Cl | 13.4 | 2.31 µM [falling, partial curve] | 6.51 µM [falling, single point]

Full records, looked up by structure. Order of values: cell number change [%] | AC50 [1] | AC50 [2]
Cc1cc(C(=O)Nc2ccccc2Cl)c2ccccc2n1 in the list: 10.5 | – | 20.6 µM [rising, single point]
O=C(NNS(=O)(=O)c1ccc(Cl)cc1)c1cc(-c2ccccc2)n[nH]1 in the list: 3.14 | – | 2.59 µM [rising, partial curve]

Remaining list, next part

Row | Structure (SMILES) | cell number change [%] | AC50 [1] | AC50 [2]
21 | CCn1c(COc2ccc(=O)n(-c3ccccc3)n2)nnc1SCc1ccccc1 | 88.7 | – | 20.6 µM [rising, partial curve]
22 | O=C(COC(=O)CCC(=O)c1ccccc1)NNC(=O)c1ccc(Cl)cc1 | 4.4 | 6.51 µM [falling, single point] | –
23 | COCCn1c(SCC(=O)N2CCN(c3ccccc3)CC2)nc2c(c1=O)SC(C)C2 (stereo not given) | 16.5 | 1.64 µM [rising, single point] | 0.517 µM [rising, partial curve]
24 | COc1ccc(CNC(=O)C2C3C=CC4(CN(Cc5cccnc5)C(=O)C24)O3)cc1 (stereo not given) | 12.8 | – | 6.51 µM [rising, single point]
25 | O=C(Nc1ccc(F)c(Cl)c1)C1CCN(S(=O)(=O)c2cccnc2)CC1 | – | – | 0.411 µM [rising, full curve, poor fit]
26 | COc1ccc2c(c1)Cc1sc(NC(=O)c3ccccc3)nc1-2 | 1.64 | 3.26 µM [rising, single point] | 1.3 µM [rising, partial curve]
27 | CCc1nnc(NC(=O)CSc2nnc3nc(C)cc(C)n23)s1 | 14.1 | – | 0.116 µM [rising, partial curve, poor fit]
28 | Cc1ccc(-c2csc(NC(=O)CSC3=NCCS3)n2)cc1 | -44.1 | 29.1 µM [falling, single point] | 16.4 µM [falling, single point]
29 | CCCCCC(=O)Nc1ccc(C(=O)CN2C(=O)NC3(CCCCCC3)C2=O)cc1 | 56.5 | – | –
30 | Fc1ccccc1/C=N/Nc1ncnc2ccccc12 | 22.7 | – | –
31 | COc1ccccc1NC(=O)c1ccc(NC(=O)c2nc3nccc(C)n3n2)cc1 | -1.3 | – | –
32 | COc1ccc(-c2c(C)nn3c(N4CCN(Cc5ccccc5)CC4)cc(C)nc23)cc1OC | – | – | 8.2 µM [rising, partial curve, poor fit]
33 | CCOC(=O)N1CCC(Nc2c(NCCN3CCN(c4ccccc4F)CC3)c(=O)c2=O)CC1 | -5.89 | – | 1.03 µM [falling, partial curve, poor fit]
34 | Cc1ccc(C2(C)NC(=O)N(CC(=O)NCc3ccccc3Cl)C2=O)cc1 (stereo not given) | – | 0.731 µM [rising, single point] | 0.58 µM [rising, single point]
35 | COc1ccccc1OCCNC(=O)C1CC(=O)N(c2cccc(SC)c2)C1 (stereo not given) | – | 0.731 µM [rising, partial curve] | –
36 | O=C1C2C3C=CC(CC3)C2C(=O)N1c1ccc(Cl)cc1 (stereo not given) | -8.39 | – | 6.51 µM [rising, single point]
37 | COc1ccc(OCCNC2CCCC2)cc1 | 4.55 | – | 1.16 µM [falling, single point]
38 | CCN(CC)c1ccc(C2CC(=O)Nc3cc(OC)c(OC)cc32)cc1 (stereo not given) | -3.3 | – | 7.31 µM [rising, partial curve]
39 | COc1ccc(CC(=O)NCc2ccccc2)cc1 | 7.34 | – | 0.461 µM [rising, full curve, poor fit]
40 | COc1cccc(C=Nc2cccnc2)c1O | -12.3 | – | 0.259 µM [falling, full curve]

Row | Structure (SMILES) | cell number change [%] | AC50 [1] | AC50 [2]
41 | CCOC(=O)c1sc(NC(=O)Nc2cccc(Cl)c2)cc1C | -76.4 | 14.6 µM [falling, partial curve] | 7.31 µM [falling, partial curve]
42 | O=C(c1ccc2nc(N3CCOCC3)sc2c1)N1CCN(c2ccc(Cl)cc2)CC1 | – | – | 5.8 µM [rising, partial curve]
43 | O=C(CCN1CCCCC1=O)NC1CCCc2c1cnn2-c1ccccc1F (stereo not given) | 20.2 | – | 20.6 µM [rising, partial curve]
44 | Cc1ccc(C(=O)COC(=O)CN2C(=O)C3C4CC(C(Br)C4Br)C3C2=O)cc1 (stereo not given) | 7.14 | – | 29.1 µM [rising, single point]
45 | COc1ccc(N(CCC#N)C(=O)/C(C#N)=C/c2cccs2)cc1 | 13.2 | – | 2.31 µM [falling, partial curve]
46 | COc1cc(OC)c(OC)cc1CNC1CCCCCC1 | -66.1 | 29.1 µM [falling, single point] | 29.1 µM [falling, single point]
47 | COc1ccc(CN(CC(=O)NCC2CCCO2)C(=O)CCC(=O)Nc2nccs2)cc1 (stereo not given) | -0.794 | 1.46 µM [falling, partial curve] | –
48 | CC(C)(C)c1ccc(-n2ncc3c2CCCC3NC(=O)CCN2CCCO2)cc1 (stereo not given) | – | – | 6.51 µM [falling, single point]
49 | CN(C)c1nc(SCc2ccccc2Cl)nc2c1CCCC2 | – | 0.731 µM [rising, full curve] | 2.31 µM [rising, partial curve]
50 | CCC(=O)Nc1c2c(nn1-c1ccc(F)cc1)CS(=O)C2 (stereo not given) | -5.43 | – | 0.00461 µM [falling, full curve, poor fit]
51 | CC1CCc2nc3ccc(S(=O)(=O)N4CCC(C(=O)NCc5ccccc5Cl)CC4)cc3c(C(=O)O)c2C1 (stereo not given) | -15.2 | – | –
52 | O=C(O)CC(Cc1ccc(Cl)cc1)C(=O)Nc1cc(Cl)ccc1Cl (stereo not given) | -20.8 | – | 6.51 µM [falling, single point]
53 | COc1cccc(-c2nc(CS(=O)(=O)CC(=O)Nc3cc(OC)ccc3OC)c(C)o2)c1 | -15.3 | – | 13 µM [falling, partial curve, poor fit]
54 | CCCCc1ccc(NC(=O)CSc2nc(=O)n(CCN(CC)CC)c3c2CCC3)cc1 | 14.5 | 1.3 µM [falling, full curve, poor fit] | –
55 | O=C(O)CCCC(=O)Nc1c(F)c(F)c(F)c(F)c1F | -8.51 | – | –
56 | COc1ccccc1N1C(=O)C2CC=CC(C)C2C1=O (stereo not given) | 8.34 | – | –
57 | Cc1ccc(S(=O)(=O)N(CC(=O)N2CCC(C)CC2)c2ccccc2)cc1 | -10.5 | – | –
58 | COc1ccc(C)cc1N=Nc1ccc(O)c2ncccc12 | – | – | 14.6 µM [falling, partial curve]
59 | COc1cc(OC)cc(-c2cc3nc4c(c(N5CCN(c6ncccn6)CC5)n3n2)CCCC4)c1 | – | 0.731 µM [rising, single point] | 0.731 µM [rising, full curve]

Source: PubChem BioAssay AID2685 (National Center for Advancing Translational Sciences (NCATS), 2010)
